Experimental data reported in patent US9352015B2, “Antimicrobial peptides” (priority 2009, dated 2016).
Some entries share one result that the patent states for a list of compounds.

Test: Circular dichroism spectroscopy (helical structure)
Format: physicochemical
Conditions: benign conditions (100 mM KCl, 50 mM aq. PO4, pH 7)

Which “[θ]222 molar ellipticity” value does the source give for `CC[C@H](C)[C@H](NC(=O)[C@H](C)NC(=O)[C@H](CCCCN)NC(=O)[C@H](CC(C)C)NC(=O)[C@H](C)NC(=O)[C@@H](NC(=O)[C@H](Cc1c[nH]cn1)NC(=O)[C@H](CC(C)C)NC(=O)[C@@H](NC(=O)[C@@H](NC(=O)[C@H](CCCCN)NC(=O)[C@H](CCCCN)NC(=O)[C@H](C)NC(=O)[C@H](CO)NC(=O)[C@H](CCCCN)NC(=O)[C@H](Cc1ccccc1)NC(=O)[C@@H](NC(=O)[C@H](CCCCN)NC(=O)[C@H](CC(C)C)NC(=O)[C@H](Cc1ccccc1)NC(=O)[C@H](CO)NC(=O)[C@H](CCCCN)NC(=O)[C@H](Cc1c[nH]c2ccccc12)NC(=O)[C@H](CCCCN)NC(C)=O)[C@@H](C)O)[C@@H](C)O)C(C)C)[C@@H](C)O)C(=O)N[C@@H](CO)C(=O)N[C@@H](CO)C(N)=O` [NKL] here?
Its value is −1,300 to −3,450.
